Drawing on PMC6355032, this text covers binding for one molecule.

No constants are given. Whether binding was seen depends on the method and setting. Binding seen in cells or lysates may run through a third protein. Here binding means that the protein was enriched with, or labelled near, the bait; the list need not be complete.

This assay concerns the target PyCCR4-1::GFP (Plasmodium yoelii 17XNL). In words: affinity purification with mass spectrometry; PyCCR4-1::GFP immunoprecipitated via the GFP tag (biotin-conjugated anti-GFP on streptavidin dynabeads, 3 h, 4C) from synchronized schizonts crosslinked in 1% v/v formaldehyde and lysed in RIPA buffer; LC/MS/MS; three replicates scored by SAINT against control IPs (thresholds 0.1 and 0.35).

B1: OAT (protein, UniProt Q7RT90 1-414)
chain: MEFVKDLKTPEDYINNELKYGAHNYDPIPVVLKRAKGVFVYDVNDKRYYDFLSAYSSVNQGHCHPNILNAMINQAKNLTICSRAFFSVPLGICERYLTNLLGYDKVLMMNTGAEANETAYKLCRKWGYEVKKIPENMAKIVVCKNNFSGRTLGCISASTTKKCTSNFGPFAPQFSKVPYDDLEALEEELKDPNVCAFIVEPIQGEAGVIVPSDNYLQGVYDICKKYNVLFVADEVQTGLGRTGKLLCVHHYNVKPDVILLGKALSGGHYPISAVLANDDIMLVIKPGEHGSTYGGNPLAASICVEALNVLINEKLCENAEKLGGPFLENLKRELKDSKIVRDVRGKGLLCAIEFKNELVNVLDICLKLKENGLITRDVHDKTIRLTPPLCITKEQLDECTEIIVKTVKFFDERF
B1: the binding result is recorded as “binds”.
